This is an account of results in PMC11518377.

Protein sequences, listed by entry. Tags and fused reporters are not part of them. Lines headed by an entry give the natural chain unless they say otherwise; changes in a name come on top.
UniProt P27637: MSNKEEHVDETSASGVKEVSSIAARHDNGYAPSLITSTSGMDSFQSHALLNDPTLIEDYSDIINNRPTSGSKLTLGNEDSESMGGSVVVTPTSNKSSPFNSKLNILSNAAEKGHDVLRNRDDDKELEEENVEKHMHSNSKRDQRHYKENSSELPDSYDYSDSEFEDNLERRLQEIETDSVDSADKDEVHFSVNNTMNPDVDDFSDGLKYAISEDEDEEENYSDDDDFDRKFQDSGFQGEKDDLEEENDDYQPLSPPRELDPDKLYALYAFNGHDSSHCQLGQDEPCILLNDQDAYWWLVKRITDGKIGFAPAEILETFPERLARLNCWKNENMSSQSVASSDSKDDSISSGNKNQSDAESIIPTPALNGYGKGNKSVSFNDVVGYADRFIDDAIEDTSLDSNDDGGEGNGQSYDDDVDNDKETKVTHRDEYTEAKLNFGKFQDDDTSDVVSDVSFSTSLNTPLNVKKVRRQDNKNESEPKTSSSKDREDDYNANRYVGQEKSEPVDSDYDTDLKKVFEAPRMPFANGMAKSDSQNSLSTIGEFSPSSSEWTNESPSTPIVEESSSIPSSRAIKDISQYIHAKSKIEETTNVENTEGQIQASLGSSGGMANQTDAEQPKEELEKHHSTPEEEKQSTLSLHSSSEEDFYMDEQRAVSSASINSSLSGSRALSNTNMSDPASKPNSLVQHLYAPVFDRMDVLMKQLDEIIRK

These are yes or no findings as the source states them, for the method shown. Binding can be weak; no strength is given.

The assay has as its target Bud14-SH3Δ (S. cerevisiae (budding yeast)) (UniProt P27637). Put plainly: two-hybrid; LexA DNA-binding domain (pMM5) and Gal4 activation domain (pMM6) fusions in strain SGY37-VIII,3 (lexA-op-LacZ); drops on agar plates overlaid with soft agar, blue colour read; also done in bfa1Δ and bud14Δ backgrounds.

B1: Cdc14 (enzyme, UniProt Q00684 1-551)
chain: MRRSVYLDNTIEFLRGRVYLGAYDYTPEDTDELVFFTVEDAIFYNSFHLDFGPMNIGHLYRFAVIFHEILNDPENANKAVVFYSSASTRQRANAACMLCCYMILVQAWTPHQVLQPLAQVDPPFMPFRDAGYSNADFEITIQDVVYGVWRAKEKGLIDLHSFNLESYEKYEHVEFGDFNVLTPDFIAFASPQEDHPKGYLATKSSHLNQPFKSVLNFFANNNVQLVVRLNSHLYNKKHFEDIGIQHLDLIFEDGTCPDLSIVKNFVGAAETIIKRGGKIAVHCKAGLGRTGCLIGAHLIYTYGFTANECIGFLRFIRPGMVVGPQQHWLYLHQNDFREWKYTTRISLKPSEAIGGLYPLISLEEYRLQKKKLKDDKRVAQNNIEGELRDLTMTPPSNGHGALSARNSSQPSTANNGSNSFKSSAVPQTSPGQPRKGQNGSNTIEDINNNRNPTSHANRKVVIESNNSDDESMQDTNGTSNHYPKVSRKKNDISSASSSRMEDNEPSATNINNAADDTILRQLLPKNRRVTSGRRTTSAAGGIRKISGSIKK
As for B1, the binding entry is recorded as “binds”.
